Numbering of substitutions follows the chain as printed. No constants are given. Whether binding was seen depends on the method and setting. Some binding calls cover weakened binding; strength is not graded here.
Experiments:
TEM8 on TEM8过表达细胞 [1] = biological target: TEM8 on TEM8过表达细胞 (UniProt Q9H6X2); assay: phage scFv binding to TEM8 overexpressing cells, anti-M13-HRP, OD450
TEM8 on TEM8过表达细胞 [2] = biological target: TEM8 on TEM8过表达细胞 (UniProt Q9H6X2); assay: cell-based assay on TEM8 stable CHO-K1 cells, Eu-labelled goat anti-mouse IgG
重组TEM8蛋白(义翘神州) (human) = 重组TEM8蛋白(义翘神州) (human) (UniProt Q9H6X2); assay: ELISA, hybridoma supernatant on plate-bound recombinant TEM8, goat anti-mouse IgG-HRP

The chains behind the UniProt entries cited, without tags or fusion partners. Where a name states a change or a piece, a line headed by the entry shows the natural chain unless it says otherwise. Residues count along the entry.
UniProt Q9H6X2: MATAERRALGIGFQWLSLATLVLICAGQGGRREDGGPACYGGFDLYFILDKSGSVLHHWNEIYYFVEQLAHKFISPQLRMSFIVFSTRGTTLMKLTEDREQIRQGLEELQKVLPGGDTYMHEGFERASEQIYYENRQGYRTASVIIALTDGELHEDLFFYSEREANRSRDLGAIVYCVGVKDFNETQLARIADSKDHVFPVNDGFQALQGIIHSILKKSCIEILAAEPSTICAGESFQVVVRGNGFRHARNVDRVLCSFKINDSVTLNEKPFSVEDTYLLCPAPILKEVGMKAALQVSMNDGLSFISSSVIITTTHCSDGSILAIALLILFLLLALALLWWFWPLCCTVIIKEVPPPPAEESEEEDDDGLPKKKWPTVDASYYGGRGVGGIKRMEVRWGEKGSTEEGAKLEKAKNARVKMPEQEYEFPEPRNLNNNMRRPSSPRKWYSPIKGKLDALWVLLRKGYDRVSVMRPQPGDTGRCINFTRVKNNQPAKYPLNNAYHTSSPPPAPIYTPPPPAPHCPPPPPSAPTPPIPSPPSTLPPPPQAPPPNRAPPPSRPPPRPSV
TEM8 on TEM8过表达细胞: residues 33-564 of Q9H6X2
重组TEM8蛋白(义翘神州): residues 33-321 of Q9H6X2

B1: HUT103 scFv phage clone (scFv, V domains shown)
VH: EVQLQESGPGLVKPSETLSLTCTVTGDSISSDYWNWVRQAPGQRLEWMGYISYSGNTYTNPSLKSRITINRDTSKNQFSLQLNSVTPEDTAVYYCARYKTITSVLDVWGQGTTVTVSS
VL: EIVMTQSPATLSVSPGERATLSCRASQNIRDFLHWYQQKPGQAPRLLIYYASQSISGIPARFSGSGSGTDFTLTISSLEPEDFAVYYCQNGHSFPYTFGGGTKVEIK
binding (TEM8 on TEM8过表达细胞 [1]): binds

B2: HUT104 scFv phage clone (scFv, V domains shown)
VH: B1 VH with V104A, L105F
VL: B1 VL
binding (TEM8 on TEM8过表达细胞 [1]): binds

B3: HUT105 scFv phage clone (scFv, V domains shown)
VH: B1 VH with V104M, L105F
VL: B1 VL
binding (TEM8 on TEM8过表达细胞 [1]): binds

B4: TEM8鼠源抗体 (antibody, V domains shown)
VH: EVQLQESGPSLVKPSQTLSLTCSVTGDSITSDYWNWIRKFPGNKLEYMGYISYSGNTYTNPSLKSRISITRDTSKNQYYLQLNSMTTEDTATYYCARYKTIDSSFDVWGAGTTVTVSS
VL: DIVMTQSPATLSVTPGDRVSLSCRASQNIRDFLHWYQQKSHESPRLLIKYASQSISGIPSRFSGSGSGSDFSLNINSVEPEDVGVYYCQNGHSFPYTFGGGTKLEIK
binding (TEM8 on TEM8过表达细胞 [2]): binds
binding (重组TEM8蛋白(义翘神州) (human)): binds

Reference: CN110156894A
